The list shows a part of the results.
compound: O=C(CCCCCCC(=O)Nc1ccccc1)NO [vorinostat]; experiment: log2 fold change, soluble protein after heating vs DMSO (PISA); higher = thermal stabilisation; K562 cells, 10 uM, 30 min; active = over 0.2 and 3.5 SD of the protein, either way, in both replicates (recomputed)
Method in brief: (§1)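 Thermal stability values are relative to control samples and come from duplicates. They are expressed as log2 fold changes. For measurement, K562 cells (2×10^6 cells/mL) received 10 μM compound for 30 min, and aliquots were heated for 3 min over 48°C-58°C, pooled, and extracted at 4°C in PBS with 0.5% NP-40. Soluble protein, the supernatant after 21,000xg for 90 min, was quantified by TMTpro 16plex LC-MS/MS with equalised channel sums.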

Chains of the proteins cited; added tags and fusions are not shown. Lines headed by an entry give the natural chain unless they say otherwise; changes in a name come on top.
UniProt O95219: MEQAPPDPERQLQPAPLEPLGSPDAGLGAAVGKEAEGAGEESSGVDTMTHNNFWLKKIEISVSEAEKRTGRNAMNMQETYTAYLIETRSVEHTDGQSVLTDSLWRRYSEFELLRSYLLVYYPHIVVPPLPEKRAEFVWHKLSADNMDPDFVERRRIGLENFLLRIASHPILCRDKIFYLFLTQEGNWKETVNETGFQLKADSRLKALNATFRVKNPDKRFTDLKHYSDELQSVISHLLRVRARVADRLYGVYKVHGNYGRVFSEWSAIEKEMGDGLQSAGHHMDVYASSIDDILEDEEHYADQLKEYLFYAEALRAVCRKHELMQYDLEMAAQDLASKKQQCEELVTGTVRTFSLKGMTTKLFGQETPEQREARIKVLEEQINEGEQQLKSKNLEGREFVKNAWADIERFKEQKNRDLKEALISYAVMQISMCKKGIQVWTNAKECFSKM
UniProt Q12824, whole entry, looked up: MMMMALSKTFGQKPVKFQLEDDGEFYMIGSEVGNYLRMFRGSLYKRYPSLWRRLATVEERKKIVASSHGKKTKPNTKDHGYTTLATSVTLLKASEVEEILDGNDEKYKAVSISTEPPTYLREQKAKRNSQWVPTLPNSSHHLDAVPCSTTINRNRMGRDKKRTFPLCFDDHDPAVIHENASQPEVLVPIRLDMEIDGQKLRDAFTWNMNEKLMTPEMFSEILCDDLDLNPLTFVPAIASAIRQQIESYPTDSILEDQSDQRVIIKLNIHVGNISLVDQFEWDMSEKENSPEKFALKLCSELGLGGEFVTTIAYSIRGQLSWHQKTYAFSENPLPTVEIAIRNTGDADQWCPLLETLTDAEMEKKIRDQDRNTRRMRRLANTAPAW
UniProt Q92540: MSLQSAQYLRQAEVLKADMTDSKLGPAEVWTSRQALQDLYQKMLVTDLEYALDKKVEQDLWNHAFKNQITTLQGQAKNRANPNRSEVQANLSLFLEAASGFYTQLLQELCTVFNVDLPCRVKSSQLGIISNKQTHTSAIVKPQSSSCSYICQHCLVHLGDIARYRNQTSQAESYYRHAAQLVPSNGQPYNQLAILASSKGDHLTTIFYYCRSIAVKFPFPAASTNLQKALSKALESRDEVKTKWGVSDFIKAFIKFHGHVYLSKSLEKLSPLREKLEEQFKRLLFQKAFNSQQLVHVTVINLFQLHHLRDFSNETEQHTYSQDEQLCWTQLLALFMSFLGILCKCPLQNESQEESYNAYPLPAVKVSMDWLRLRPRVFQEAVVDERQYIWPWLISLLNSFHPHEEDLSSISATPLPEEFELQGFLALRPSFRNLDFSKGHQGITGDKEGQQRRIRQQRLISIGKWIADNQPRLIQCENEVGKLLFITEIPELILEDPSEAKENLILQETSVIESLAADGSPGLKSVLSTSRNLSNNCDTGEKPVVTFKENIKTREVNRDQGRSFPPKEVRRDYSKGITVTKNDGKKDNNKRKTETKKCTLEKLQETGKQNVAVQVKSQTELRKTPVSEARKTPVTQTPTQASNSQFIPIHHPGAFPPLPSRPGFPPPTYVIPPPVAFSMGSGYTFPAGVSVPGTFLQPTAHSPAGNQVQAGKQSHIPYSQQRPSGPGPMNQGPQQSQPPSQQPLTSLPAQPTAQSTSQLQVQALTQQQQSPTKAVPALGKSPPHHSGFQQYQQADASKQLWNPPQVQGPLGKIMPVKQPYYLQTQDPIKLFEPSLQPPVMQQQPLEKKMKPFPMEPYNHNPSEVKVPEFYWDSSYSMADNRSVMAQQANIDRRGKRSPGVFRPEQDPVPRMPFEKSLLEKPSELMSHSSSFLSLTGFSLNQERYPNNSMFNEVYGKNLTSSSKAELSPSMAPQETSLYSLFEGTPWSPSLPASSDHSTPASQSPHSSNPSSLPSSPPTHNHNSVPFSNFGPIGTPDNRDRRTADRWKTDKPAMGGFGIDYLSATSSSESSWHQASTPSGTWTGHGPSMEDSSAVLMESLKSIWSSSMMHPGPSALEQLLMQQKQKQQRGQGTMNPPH
UniProt Q92925, whole entry, looked up: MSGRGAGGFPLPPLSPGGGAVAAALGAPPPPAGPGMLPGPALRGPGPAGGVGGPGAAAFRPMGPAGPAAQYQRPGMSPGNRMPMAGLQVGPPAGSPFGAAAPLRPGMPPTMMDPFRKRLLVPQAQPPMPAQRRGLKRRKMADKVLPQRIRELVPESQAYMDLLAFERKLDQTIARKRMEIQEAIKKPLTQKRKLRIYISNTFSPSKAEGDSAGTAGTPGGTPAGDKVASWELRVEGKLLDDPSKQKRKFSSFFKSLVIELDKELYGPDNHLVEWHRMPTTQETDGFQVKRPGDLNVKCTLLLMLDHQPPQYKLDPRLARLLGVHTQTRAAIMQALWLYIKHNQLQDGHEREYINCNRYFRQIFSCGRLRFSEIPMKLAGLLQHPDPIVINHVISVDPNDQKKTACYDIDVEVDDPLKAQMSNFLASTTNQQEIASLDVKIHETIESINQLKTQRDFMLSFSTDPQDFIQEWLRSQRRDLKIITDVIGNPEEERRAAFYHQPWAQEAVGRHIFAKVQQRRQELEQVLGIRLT
UniProt O60504: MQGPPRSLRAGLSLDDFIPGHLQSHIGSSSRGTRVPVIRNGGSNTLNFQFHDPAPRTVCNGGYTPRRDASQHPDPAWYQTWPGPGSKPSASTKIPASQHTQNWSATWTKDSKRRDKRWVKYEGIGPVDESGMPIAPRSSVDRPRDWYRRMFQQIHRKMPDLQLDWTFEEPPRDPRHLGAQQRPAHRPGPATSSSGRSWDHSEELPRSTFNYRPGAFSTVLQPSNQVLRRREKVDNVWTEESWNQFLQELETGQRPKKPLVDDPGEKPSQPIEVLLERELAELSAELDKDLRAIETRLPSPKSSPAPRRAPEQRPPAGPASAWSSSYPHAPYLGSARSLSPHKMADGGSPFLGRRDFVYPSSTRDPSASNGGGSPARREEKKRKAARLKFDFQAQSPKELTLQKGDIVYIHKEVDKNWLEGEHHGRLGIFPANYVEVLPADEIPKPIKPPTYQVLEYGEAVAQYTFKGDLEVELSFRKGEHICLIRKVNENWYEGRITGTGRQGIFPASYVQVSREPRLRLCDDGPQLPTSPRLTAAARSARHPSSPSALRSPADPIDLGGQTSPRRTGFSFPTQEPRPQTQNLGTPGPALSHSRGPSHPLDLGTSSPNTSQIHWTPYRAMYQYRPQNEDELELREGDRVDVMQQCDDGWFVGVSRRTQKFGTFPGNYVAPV
UniProt P57768: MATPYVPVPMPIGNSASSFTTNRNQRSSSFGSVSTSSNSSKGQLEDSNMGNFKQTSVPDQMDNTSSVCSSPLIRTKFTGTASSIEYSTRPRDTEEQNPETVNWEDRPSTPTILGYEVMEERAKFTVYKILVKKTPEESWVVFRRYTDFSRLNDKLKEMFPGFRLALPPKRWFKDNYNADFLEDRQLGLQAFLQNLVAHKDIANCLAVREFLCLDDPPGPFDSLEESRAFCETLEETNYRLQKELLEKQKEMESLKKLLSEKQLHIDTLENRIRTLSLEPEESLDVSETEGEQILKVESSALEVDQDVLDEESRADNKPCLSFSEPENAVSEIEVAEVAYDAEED
UniProt Q6J4K2: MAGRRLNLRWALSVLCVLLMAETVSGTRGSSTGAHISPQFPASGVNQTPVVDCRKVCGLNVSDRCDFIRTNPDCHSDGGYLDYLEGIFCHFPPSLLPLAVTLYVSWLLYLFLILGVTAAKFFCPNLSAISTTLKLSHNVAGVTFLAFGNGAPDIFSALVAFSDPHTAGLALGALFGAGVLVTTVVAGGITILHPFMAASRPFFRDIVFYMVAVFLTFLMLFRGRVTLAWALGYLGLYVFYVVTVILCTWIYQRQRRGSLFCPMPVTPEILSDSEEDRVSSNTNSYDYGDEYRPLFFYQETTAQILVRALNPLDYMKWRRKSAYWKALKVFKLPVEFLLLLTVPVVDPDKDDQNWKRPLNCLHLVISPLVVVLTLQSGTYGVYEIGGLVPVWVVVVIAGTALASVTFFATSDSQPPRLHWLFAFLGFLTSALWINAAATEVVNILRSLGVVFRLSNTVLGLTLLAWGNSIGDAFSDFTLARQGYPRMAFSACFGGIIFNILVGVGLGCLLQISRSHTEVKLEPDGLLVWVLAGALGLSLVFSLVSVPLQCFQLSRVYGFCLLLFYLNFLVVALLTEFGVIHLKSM
UniProt Q9BT81: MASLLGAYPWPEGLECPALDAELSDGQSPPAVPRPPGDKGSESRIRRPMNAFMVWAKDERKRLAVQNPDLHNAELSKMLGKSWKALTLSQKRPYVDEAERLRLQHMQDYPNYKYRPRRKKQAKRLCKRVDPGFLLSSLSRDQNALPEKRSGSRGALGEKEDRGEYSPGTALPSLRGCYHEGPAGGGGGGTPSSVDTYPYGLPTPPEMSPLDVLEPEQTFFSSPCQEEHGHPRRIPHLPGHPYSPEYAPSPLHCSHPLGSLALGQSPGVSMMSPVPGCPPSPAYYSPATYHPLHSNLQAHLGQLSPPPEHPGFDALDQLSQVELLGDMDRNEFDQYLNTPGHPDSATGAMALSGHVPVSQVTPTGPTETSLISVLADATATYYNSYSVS
UniProt Q02446, whole entry, looked up: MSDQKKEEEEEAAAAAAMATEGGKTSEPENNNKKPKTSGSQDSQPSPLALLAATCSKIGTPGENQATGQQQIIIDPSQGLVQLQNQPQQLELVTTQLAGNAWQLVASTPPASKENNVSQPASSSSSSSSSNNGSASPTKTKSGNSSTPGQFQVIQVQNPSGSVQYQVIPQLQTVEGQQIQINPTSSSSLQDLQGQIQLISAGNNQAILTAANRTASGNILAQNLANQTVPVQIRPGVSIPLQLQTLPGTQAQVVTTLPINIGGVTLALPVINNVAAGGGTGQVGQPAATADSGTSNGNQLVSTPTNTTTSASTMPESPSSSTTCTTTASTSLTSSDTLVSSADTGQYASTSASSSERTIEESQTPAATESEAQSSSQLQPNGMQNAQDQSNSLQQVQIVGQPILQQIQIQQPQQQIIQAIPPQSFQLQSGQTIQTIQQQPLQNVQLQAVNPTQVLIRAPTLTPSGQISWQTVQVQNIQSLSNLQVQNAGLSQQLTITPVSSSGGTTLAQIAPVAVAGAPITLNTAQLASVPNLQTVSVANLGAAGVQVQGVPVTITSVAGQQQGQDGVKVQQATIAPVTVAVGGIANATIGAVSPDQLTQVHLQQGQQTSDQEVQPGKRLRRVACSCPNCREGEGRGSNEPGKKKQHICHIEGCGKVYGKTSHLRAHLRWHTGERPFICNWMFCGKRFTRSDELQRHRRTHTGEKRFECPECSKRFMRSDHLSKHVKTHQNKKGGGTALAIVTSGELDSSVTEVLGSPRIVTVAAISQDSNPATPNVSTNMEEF
UniProt O75971: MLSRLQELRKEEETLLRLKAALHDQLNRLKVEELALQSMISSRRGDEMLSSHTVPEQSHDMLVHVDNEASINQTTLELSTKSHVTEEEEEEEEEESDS
UniProt P84022, whole entry, looked up: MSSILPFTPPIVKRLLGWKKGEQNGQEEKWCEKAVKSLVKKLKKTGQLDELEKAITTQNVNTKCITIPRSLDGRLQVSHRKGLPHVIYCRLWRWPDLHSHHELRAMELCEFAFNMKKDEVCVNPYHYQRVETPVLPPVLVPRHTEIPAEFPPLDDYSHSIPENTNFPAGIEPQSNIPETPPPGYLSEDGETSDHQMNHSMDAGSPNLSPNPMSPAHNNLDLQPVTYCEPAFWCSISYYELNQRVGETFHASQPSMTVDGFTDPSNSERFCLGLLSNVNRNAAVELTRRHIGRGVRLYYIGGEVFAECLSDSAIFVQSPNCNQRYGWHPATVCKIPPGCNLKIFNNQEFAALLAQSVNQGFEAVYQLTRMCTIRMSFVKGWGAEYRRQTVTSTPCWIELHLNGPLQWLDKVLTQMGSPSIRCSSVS
UniProt Q96E16: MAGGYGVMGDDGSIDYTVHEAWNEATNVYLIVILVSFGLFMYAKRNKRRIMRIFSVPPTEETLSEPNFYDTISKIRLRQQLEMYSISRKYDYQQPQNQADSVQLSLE
UniProt Q53HV7: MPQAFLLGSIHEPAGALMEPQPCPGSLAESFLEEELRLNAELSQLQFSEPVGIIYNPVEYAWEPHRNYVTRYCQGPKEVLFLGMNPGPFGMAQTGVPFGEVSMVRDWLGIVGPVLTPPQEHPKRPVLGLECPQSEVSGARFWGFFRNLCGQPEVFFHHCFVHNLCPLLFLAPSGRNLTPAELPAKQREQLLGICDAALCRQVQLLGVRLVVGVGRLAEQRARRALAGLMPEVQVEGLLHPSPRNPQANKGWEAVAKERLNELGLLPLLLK
UniProt P0DJ93: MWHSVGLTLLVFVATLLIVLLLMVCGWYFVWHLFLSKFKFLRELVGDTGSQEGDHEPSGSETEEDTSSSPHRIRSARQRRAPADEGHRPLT
UniProt O00161: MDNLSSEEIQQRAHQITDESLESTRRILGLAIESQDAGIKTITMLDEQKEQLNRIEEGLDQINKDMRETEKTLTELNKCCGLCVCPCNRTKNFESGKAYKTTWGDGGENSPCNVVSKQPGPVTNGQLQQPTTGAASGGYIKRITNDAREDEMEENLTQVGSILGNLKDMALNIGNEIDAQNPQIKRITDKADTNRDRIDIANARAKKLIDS
UniProt Q8WVI0: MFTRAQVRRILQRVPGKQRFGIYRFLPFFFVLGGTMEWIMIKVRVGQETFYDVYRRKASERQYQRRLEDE

log2 fold change, inactive:
SNIP1 (UniProt Q8TAD8) -0.013
SNX4 (UniProt O95219) 0
SMARCB1 (UniProt Q12824) -0.158
SMG7 isoform 4 (UniProt Q92540) 0.014
SMARCD2 (UniProt Q92925) 0.127
SNRPD2 (UniProt K7EJB5) -0.101
SNRPN isoform 2 (UniProt P63162) -0.056
SNX27 (UniProt Q96L92) 0.14
SORBS3 (UniProt O60504) -0.089
SMPD4 isoform 2 (UniProt Q9NXE4) 0.216
SNX16 (UniProt P57768) 0.068
SLC8B1 (UniProt Q6J4K2) -0.031
SOX7 isoform 2 (UniProt Q9BT81) -0.02
SP4 (UniProt Q02446) 0.118
SNAPC5 (UniProt O75971) -0.154
SMARCA2 (UniProt P51531) 0.163
SMAD3 (UniProt P84022) -0.015

compound: O=C(CCCCCCNC(=O)c1cnc(N(c2ccccc2)c2ccccc2Cl)nc1)NO [citarinostat]; experiment: as above
Method in brief: as §1

log2 fold change, inactive:
SNRK (UniProt Q9NRH2) 0.26
SMARCB1 (UniProt Q12824) -0.171
SNX2 isoform 2 (UniProt O60749) 0.065
SMG7 isoform 4 (UniProt Q92540) 0.034
SMARCD2 (UniProt Q92925) 0.05
SMIM19 (UniProt Q96E16) -0.026
SNRPD2 (UniProt K7EJB5) -0.003
SNRPN isoform 2 (UniProt P63162) 0.152
SNX27 (UniProt Q96L92) -0.006
SNX16 (UniProt P57768) 0
SMUG1 (UniProt Q53HV7) 0.035
SP2 (UniProt Q02086) -0.063
SP4 (UniProt Q02446) -0.052
SMU1 isoform 2 (UniProt Q2TAY7) 0.087
SNX19 (UniProt Q92543) 0.072
SLC9A6 isoform 3 (UniProt Q92581) -0.066
SMIM13 (UniProt P0DJ93) -0.038
SNAP23 isoform 2 (UniProt O00161) 0.063
SMARCA2 (UniProt P51531) 0.161
SMIM4 (UniProt Q8WVI0) -0.006

From the supplement of paper PMC10849652
